Measured values as given in PMC6880622.
These are yes or no findings as the source states them, for the method shown. In cells and extracts the contact can be indirect. A result given as binding can be weak or reduced; the word gives no strength.

T1: Cysteine-rich protein 61 (CCN1/Cyr61) (human (endogenous in MDA-MB-231)) (UniProt O00622)
T1 sequence: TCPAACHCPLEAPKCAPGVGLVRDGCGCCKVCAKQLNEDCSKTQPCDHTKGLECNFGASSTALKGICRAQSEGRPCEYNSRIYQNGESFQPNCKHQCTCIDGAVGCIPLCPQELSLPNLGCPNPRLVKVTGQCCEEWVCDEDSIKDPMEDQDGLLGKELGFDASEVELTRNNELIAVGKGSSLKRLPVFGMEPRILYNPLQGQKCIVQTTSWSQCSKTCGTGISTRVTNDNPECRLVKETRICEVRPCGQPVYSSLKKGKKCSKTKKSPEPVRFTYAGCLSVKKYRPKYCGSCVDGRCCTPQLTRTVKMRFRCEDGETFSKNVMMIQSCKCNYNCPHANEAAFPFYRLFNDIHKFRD

B1: Cysteine-rich protein 61 (CCN1/Cyr61) (protein, UniProt O00622 25-381)
chain: T1 sequence

How the values were obtained:
[1] = target: T1, Cysteine-rich protein 61 (CCN1/Cyr61) (human (endogenous in MDA-MB-231)); experiment: co-IP; endogenous proteins of MDA-MB-231 cell lysate (IP Lysis/Wash Buffer: 0.025 M Tris, 0.15 M NaCl, 0.001 M EDTA, 1% NP-40, 5% glycerol, pH 7.4); antibody coupled to aminolink plus coupling resin in spin columns (anti-Cyr61; by the legend also anti-integrin αv and anti-integrin β1); western blot of the eluates; mouse IgG as negative control; co-culture with HPMEC said to promote and metapristone to inhibit the complex
[2] = target: integrin αvβ1 (human (endogenous in MDA-MB-231)); experiment: as above

Row | Molecule | binding [1] | binding [2]
1 | integrin αvβ1 (human (endogenous in MDA-MB-231)) (complex) | binds | –
2 | B1 | – | binds
